Experimental data from the supplement of paper PMC10849652.
The other results are listed elsewhere or left out.

Sequences of proteins named here, by UniProt entry; tags and fusion partners are left off. A change or cut given only in a name is not applied to a line headed by its entry.
UniProt Q9H6R4: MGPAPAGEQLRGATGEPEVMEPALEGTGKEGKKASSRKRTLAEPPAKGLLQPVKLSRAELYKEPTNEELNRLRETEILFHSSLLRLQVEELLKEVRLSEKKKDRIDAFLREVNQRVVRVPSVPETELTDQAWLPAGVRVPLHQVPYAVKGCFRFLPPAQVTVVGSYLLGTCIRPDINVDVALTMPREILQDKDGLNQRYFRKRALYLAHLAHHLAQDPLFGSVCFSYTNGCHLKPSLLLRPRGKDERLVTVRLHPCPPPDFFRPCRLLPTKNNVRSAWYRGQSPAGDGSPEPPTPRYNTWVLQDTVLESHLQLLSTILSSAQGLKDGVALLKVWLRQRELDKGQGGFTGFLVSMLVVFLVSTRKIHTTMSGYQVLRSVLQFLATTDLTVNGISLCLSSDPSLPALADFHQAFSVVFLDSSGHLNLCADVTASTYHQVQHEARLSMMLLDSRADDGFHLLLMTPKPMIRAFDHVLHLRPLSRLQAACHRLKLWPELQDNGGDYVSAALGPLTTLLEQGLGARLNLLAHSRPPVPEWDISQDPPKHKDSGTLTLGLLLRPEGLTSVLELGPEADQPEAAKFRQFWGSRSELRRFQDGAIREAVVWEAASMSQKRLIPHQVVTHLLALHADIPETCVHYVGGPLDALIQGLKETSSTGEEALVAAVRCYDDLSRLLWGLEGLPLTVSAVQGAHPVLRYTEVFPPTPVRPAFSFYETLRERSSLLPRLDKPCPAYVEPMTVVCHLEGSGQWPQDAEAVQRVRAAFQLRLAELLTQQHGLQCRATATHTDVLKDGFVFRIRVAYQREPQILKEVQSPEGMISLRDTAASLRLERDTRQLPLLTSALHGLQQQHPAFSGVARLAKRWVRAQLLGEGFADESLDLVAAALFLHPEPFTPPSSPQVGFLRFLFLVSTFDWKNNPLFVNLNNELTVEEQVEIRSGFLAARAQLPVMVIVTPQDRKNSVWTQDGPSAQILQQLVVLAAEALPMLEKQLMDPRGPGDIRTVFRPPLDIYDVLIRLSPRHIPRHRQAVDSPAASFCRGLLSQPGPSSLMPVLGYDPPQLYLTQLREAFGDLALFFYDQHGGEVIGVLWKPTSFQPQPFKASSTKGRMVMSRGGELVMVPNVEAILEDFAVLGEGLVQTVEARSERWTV
UniProt P15559, whole entry, looked up: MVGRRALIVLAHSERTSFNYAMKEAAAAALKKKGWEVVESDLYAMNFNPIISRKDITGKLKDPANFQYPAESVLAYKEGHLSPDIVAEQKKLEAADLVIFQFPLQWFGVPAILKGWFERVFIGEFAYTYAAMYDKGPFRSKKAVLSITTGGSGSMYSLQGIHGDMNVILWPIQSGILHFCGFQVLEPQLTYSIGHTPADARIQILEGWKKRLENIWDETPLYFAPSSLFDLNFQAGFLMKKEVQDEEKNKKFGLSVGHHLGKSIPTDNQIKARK
UniProt P57740: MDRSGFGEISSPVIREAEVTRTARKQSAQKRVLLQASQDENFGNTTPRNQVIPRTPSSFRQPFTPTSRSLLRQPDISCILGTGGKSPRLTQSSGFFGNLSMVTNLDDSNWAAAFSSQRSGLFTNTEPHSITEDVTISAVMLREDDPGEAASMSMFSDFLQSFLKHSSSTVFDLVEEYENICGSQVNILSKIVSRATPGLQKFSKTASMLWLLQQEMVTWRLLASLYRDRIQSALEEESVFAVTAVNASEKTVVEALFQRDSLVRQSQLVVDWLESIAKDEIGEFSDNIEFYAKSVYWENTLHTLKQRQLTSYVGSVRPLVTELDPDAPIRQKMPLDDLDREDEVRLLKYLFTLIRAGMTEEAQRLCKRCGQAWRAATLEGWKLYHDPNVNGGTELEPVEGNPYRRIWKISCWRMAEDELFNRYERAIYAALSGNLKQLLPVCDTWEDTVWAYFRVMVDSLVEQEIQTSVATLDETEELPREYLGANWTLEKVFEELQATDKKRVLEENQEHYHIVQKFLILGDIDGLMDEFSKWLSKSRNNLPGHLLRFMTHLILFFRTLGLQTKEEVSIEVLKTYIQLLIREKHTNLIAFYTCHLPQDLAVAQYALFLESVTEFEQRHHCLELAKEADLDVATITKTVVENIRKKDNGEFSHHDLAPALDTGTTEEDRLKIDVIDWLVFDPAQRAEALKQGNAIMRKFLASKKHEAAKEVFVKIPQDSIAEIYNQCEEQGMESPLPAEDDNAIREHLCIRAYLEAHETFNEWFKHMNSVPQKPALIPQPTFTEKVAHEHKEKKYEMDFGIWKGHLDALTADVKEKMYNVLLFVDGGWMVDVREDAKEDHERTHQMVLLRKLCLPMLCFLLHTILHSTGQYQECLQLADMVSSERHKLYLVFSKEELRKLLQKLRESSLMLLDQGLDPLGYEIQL
UniProt Q16656: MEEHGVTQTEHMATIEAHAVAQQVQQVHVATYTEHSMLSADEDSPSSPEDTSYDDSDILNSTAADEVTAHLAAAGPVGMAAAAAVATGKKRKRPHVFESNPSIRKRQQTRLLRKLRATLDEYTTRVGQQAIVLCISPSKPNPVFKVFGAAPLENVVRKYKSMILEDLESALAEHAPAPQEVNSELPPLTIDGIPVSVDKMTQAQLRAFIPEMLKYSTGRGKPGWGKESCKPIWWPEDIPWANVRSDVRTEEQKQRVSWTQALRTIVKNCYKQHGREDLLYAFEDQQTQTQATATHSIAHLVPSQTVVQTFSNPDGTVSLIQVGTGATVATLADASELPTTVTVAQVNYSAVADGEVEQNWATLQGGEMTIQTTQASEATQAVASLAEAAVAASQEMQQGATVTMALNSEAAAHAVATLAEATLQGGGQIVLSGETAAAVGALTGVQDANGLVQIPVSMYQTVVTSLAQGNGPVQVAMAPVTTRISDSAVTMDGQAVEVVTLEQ
UniProt P06748, whole entry, looked up: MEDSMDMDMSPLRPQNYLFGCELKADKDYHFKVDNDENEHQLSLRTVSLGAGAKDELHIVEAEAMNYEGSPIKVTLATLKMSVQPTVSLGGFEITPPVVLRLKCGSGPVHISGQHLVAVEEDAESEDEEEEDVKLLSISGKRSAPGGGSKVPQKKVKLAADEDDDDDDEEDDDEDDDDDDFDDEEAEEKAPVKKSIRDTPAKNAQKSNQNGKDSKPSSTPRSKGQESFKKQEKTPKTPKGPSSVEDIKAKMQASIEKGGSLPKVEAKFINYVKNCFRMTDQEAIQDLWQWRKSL
UniProt O95989: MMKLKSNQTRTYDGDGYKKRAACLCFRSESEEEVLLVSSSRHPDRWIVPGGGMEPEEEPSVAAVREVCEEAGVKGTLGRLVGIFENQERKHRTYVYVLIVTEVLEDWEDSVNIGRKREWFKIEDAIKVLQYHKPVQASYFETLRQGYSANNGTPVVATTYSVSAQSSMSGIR
UniProt P49757: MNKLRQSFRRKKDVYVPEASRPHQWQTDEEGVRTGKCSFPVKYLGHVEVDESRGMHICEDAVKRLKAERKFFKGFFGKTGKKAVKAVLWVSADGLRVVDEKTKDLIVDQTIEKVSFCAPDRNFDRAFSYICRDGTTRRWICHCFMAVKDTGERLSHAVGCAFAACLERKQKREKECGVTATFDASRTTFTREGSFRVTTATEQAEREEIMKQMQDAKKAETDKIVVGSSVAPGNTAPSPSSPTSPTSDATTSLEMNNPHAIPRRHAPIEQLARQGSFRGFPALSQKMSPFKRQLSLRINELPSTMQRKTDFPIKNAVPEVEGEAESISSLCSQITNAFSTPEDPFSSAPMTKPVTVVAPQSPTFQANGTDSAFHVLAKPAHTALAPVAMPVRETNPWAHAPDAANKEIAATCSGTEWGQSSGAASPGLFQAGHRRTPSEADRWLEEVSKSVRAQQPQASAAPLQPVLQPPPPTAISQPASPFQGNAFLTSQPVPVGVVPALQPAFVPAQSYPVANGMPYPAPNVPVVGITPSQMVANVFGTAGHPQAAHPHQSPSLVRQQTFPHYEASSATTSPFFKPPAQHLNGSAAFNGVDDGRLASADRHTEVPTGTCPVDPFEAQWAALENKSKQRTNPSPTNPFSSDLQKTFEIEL
UniProt Q9H857: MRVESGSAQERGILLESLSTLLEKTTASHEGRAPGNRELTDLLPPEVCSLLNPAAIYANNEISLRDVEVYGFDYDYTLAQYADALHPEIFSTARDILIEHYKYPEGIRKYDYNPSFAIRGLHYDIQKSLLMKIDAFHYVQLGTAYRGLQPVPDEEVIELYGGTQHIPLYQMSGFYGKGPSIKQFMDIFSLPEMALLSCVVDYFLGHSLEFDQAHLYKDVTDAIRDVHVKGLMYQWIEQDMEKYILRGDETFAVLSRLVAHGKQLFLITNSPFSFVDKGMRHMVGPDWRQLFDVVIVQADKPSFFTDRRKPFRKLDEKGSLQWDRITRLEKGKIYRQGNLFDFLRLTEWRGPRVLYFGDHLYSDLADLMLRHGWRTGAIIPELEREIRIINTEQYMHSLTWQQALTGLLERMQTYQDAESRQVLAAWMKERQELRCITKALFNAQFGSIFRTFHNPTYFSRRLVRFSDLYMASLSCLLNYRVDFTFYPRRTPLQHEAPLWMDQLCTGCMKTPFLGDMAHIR
UniProt Q8WV22: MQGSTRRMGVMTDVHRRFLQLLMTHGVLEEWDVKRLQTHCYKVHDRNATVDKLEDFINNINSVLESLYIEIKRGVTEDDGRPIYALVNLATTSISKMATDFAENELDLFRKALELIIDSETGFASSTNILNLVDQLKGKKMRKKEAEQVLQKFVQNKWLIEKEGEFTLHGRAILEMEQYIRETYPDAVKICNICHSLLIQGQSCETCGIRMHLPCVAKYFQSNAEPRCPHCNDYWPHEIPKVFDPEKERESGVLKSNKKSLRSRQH
UniProt Q5SY16: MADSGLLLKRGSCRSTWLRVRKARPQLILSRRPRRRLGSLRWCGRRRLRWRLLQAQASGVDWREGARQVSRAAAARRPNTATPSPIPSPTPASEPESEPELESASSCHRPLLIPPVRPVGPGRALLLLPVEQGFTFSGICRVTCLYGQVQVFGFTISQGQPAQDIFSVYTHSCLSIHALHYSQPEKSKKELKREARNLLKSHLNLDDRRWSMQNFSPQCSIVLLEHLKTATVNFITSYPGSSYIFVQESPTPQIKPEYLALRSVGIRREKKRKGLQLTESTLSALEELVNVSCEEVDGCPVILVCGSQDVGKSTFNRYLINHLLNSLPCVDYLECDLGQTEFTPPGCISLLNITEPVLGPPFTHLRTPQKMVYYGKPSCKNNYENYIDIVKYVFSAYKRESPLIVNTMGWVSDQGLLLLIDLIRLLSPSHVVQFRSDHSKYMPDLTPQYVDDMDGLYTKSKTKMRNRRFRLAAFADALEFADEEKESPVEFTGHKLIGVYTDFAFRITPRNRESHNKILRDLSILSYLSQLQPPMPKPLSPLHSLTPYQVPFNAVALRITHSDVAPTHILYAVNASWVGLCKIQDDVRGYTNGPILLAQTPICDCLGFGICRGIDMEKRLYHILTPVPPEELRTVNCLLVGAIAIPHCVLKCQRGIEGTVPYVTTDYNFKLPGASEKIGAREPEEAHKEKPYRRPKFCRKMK
UniProt Q9Y5Y2: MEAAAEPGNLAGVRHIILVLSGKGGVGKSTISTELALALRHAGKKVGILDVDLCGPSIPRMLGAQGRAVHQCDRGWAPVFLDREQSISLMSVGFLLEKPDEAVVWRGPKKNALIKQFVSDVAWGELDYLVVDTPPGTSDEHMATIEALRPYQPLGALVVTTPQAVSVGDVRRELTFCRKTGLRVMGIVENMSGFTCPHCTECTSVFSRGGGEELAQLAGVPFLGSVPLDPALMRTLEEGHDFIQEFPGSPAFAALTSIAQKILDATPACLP
UniProt O75414: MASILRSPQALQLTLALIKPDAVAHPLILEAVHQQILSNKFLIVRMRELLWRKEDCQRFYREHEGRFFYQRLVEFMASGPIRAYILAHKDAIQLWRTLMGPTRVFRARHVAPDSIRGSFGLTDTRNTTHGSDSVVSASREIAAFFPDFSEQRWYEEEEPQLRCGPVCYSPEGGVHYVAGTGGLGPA
UniProt Q9NPE3: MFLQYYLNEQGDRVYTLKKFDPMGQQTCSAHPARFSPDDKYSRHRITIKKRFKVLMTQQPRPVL
UniProt A8MXV4: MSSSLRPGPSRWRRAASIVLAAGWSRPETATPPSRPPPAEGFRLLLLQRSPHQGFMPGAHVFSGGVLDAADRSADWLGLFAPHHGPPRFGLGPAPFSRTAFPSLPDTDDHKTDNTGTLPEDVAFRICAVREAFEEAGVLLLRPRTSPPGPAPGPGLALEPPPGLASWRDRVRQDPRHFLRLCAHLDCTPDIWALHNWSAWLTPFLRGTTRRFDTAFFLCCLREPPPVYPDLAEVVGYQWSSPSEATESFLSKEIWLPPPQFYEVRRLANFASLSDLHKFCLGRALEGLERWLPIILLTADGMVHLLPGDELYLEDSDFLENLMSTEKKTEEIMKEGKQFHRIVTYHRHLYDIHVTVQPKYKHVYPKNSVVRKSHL

Tests used:
Experiment in all cases: log2 fold change, soluble protein after heating vs DMSO (PISA); higher = thermal stabilisation; K562 lysate, 10 uM; active = over 0.2 and 3.5 SD of the protein, either way, in both replicates (recomputed)
vemurafenib = compound: CCCS(=O)(=O)Nc1ccc(F)c(C(=O)c2c[nH]c3ncc(-c4ccc(Cl)cc4)cc23)c1F [vemurafenib]
Summary of the method: (§1)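 Following dounce homogenisation of K562 pellets in PBS pH 7.4 with 1 mM MgCl2, crude extract at 1 mg/mL protein was incubated for 30 min with 10 μM compound. Aliquots were then heated for 3 min over 48°C-58°C and pooled, NP-40 was added to 0.5% at 4°C, and soluble protein was recovered as the supernatant at 21,000xg for 90 min. Channel-sum-equalised TMTpro 16plex LC-MS/MS quantified this protein. Each value, from duplicates, is a log-two fold change in thermal stability relative to solvent controls.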

[1] = compound: CCCS(=O)(=O)Nc1ccc(F)c(C(=O)c2c[nH]c3ncc(Cl)cc23)c1F
Summary of the method: as §1

barasertib = compound: CCN(CCCOc1ccc2c(Nc3cc(CC(=O)Nc4cccc(F)c4)[nH]n3)ncnc2c1)CCOP(=O)(O)O [barasertib]
Summary of the method: as §1

[2] = compound: CC[C@@H]1C(=O)N(C)c2cnc(Nc3ccc(C(=O)NC4CCN(C)CC4)cc3OC)nc2N1C1CCCC1
Summary of the method: as §1

volasertib = compound: CC[C@@H]1C(=O)N(C)c2cnc(Nc3ccc(C(=O)N[C@H]4CC[C@H](N5CCN(CC6CC6)CC5)CC4)cc3OC)nc2N1C(C)C [volasertib]
Summary of the method: as §1

[3] = compound: CCn1c(C(=O)N(C2CC2)C2CC2)cc2c3c(ncn3C)c(Nc3cc(C)n(C)n3)nc21
Summary of the method: as §1

[4] = compound: CCn1cc(-c2ccnc3[nH]c(-c4cccc(CN(C)C)c4)cc23)c(-c2ccc(NC(=O)N(C)C)cc2)n1
Summary of the method: as §1

[5] = compound: CN1CCC(CNc2ccc3ncc(-c4cccc(OC(F)(F)F)c4)n3n2)CC1
Summary of the method: as §1

saracatinib = compound: CN1CCN(CCOc2cc(OC3CCOCC3)c3c(Nc4c(Cl)ccc5c4OCO5)ncnc3c2)CC1 [saracatinib]
Summary of the method: as §1

sotrastaurin = compound: CN1CCN(c2nc(C3=C(c4c[nH]c5ccccc45)C(=O)NC3=O)c3ccccc3n2)CC1 [sotrastaurin]
Summary of the method: as §1

alvocidib = compound: CN1CC[C@H](c2c(O)cc(O)c3c(=O)cc(-c4ccccc4Cl)oc23)[C@H](O)C1 [alvocidib]
Summary of the method: as §1

Tubastatin A = compound: CN1CCc2c(c3ccccc3n2Cc2ccc(C(=O)NO)cc2)C1 [Tubastatin A]
Summary of the method: as §1

[6] = compound: CNC(=O)C1=CC=CC=C1NC2=NC(=NC=C2Cl)NC3=C(C=C(C=C3)N4CCOCC4)OC
Summary of the method: as §1

defactinib = compound: CNC(=O)c1ccc(Nc2ncc(C(F)(F)F)c(NCc3nccnc3N(C)S(C)(=O)=O)n2)cc1 [defactinib]
Summary of the method: as §1

[7] = compound: CNc1nc(-c2ccc3c(N)n[nH]c3c2)cc(N2C[C@@H](C(=O)NC3CCCCC3)CC[C@H]2C)n1
Summary of the method: as §1

encorafenib = compound: COC(=O)N[C@@H](C)CNc1nccc(-c2cn(C(C)C)nc2-c2cc(Cl)cc(NS(C)(=O)=O)c2F)n1 [encorafenib]
Summary of the method: as §1

[8] = compound: COC(=O)[C@H](CCSC)NC(=O)C1=C(C=C(C=C1)NC[C@H](CS)N)C2=CC=CC=C2
Summary of the method: as §1

alisertib = compound: COc1cc(Nc2ncc3c(n2)-c2ccc(Cl)cc2C(c2c(F)cccc2OC)=NC3)ccc1C(=O)O [alisertib]
Summary of the method: as §1

[9] = compound: COc1cc2nc(-c3cc(F)ccc3O)nc(N[C@@H]3CNC[C@H]3C(C)(C)O)c2cc1OC
Summary of the method: as §1

gefitinib = compound: COc1cc2ncnc(Nc3ccc(F)c(Cl)c3)c2cc1OCCCN1CCOCC1 [gefitinib]
Summary of the method: as §1

Measured: log2 fold change

NOL6 (UniProt Q9H6R4)
inactive: vemurafenib 0.024 | [1] 0.041 | barasertib 0.012 | [2] -0.065 | volasertib -0.064 | [3] 0.001 | [4] -0.033 | [5] 0.006 | saracatinib 0.038 | sotrastaurin 0.038 | alvocidib -0.052 | Tubastatin A -0.079 | [6] 0.021 | defactinib 0.012 | [7] 0.041 | encorafenib 0.045 | [8] -0.043 | alisertib -0.021 | [9] -0.019 | gefitinib -0.047

NQO1 (UniProt P15559)
inactive: vemurafenib -0.014 | [1] 0.026 | barasertib 0.163 | [2] -0.097 | volasertib -0.082 | [3] -0.023 | [4] -0.067 | [5] -0.035 | saracatinib 0.155 | sotrastaurin 0.034 | alvocidib 0.007 | Tubastatin A -0.079 | [6] 0.068 | defactinib 0.003 | [7] -0.111 | encorafenib 0.043 | [8] 0.159 | alisertib -0.001 | [9] -0.042 | gefitinib 0.009

NUP107 (UniProt P57740)
inactive: vemurafenib 0.039 | [1] 0.014 | barasertib -0.013 | [2] -0.001 | volasertib -0.08 | [3] 0.039 | [4] -0.065 | [5] 0.02 | saracatinib 0.014 | sotrastaurin 0.049 | alvocidib 0.003 | Tubastatin A -0.179 | [6] 0.044 | defactinib -0.028 | [7] -0.021 | encorafenib 0.069 | [8] -0.037 | alisertib -0.009 | [9] 0.004 | gefitinib -0.021

NOP53 (UniProt Q9NZM5)
inactive: vemurafenib 0.021 | [1] 0.033 | barasertib 0.022 | [2] 0.027 | volasertib -0.001 | [3] -0.028 | [4] 0.014 | [5] -0.168 | saracatinib -0.016 | sotrastaurin -0.01 | alvocidib 0.047 | Tubastatin A -0.008 | [6] -0.014 | defactinib 0.039 | [7] 0.066 | encorafenib 0.073 | [8] 0.003 | alisertib 0.255 | [9] -0.008 | gefitinib -0.038

NRAS (UniProt P01111)
inactive: vemurafenib -0.069 | [1] -0.003 | barasertib 0.09 | [2] 0.017 | volasertib 0.006 | [3] -0.023 | [4] -0.036 | [5] -0.009 | saracatinib 0.037 | sotrastaurin -0.015 | alvocidib 0.023 | Tubastatin A -0.009 | [6] -0.003 | defactinib 0.006 | [7] -0.015 | encorafenib -0.008 | [8] -0.085 | alisertib -0.008 | [9] -0.004 | gefitinib -0.001

NRF1 isoform 4 (UniProt Q16656)
inactive: vemurafenib 0.016 | [1] 0.055 | barasertib 0.052 | [2] -0.007 | volasertib 0 | [3] -0.005 | [4] 0.004 | [5] -0.085 | saracatinib 0.039 | sotrastaurin 0.012 | alvocidib -0.044 | Tubastatin A 0.003 | [6] 0.03 | defactinib -0.017 | [7] -0.003 | encorafenib -0.013 | [8] -0.041 | alisertib 0.037 | [9] -0.017 | gefitinib -0.031

NPM1 (UniProt P06748)
inactive: vemurafenib 0.004 | [1] -0.019 | barasertib -0.022 | [2] -0.004 | volasertib 0.006 | [3] -0.001 | [4] 0.011 | [5] -0.005 | saracatinib 0.004 | sotrastaurin 0.003 | alvocidib 0.019 | Tubastatin A 0.01 | [6] 0.003 | defactinib 0.001 | [7] 0.033 | encorafenib -0.031 | [8] 0.077 | alisertib 0 | [9] -0.005 | gefitinib 0.019

NUDT3 (UniProt O95989)
inactive: vemurafenib -0.017 | [1] -0.013 | barasertib -0.012 | [2] 0.004 | volasertib 0.002 | [3] 0.049 | [4] 0.054 | [5] 0.113 | saracatinib 0.022 | sotrastaurin -0.05 | alvocidib -0.015 | Tubastatin A -0.012 | [6] -0.018 | defactinib -0.001 | [7] -0.008 | encorafenib 0.009 | [8] -0.04 | alisertib 0.042 | [9] -0.007 | gefitinib -0.009

NUMB (UniProt P49757)
inactive: vemurafenib 0.001 | [1] 0.001 | barasertib 0.028 | [2] 0.06 | volasertib -0.015 | [3] 0.008 | [4] 0.055 | [5] -0.061 | saracatinib 0.024 | sotrastaurin -0.134 | alvocidib -0.021 | Tubastatin A -0.125 | [6] -0.028 | defactinib -0.02 | [7] 0.026 | encorafenib 0.094 | [8] 0.013 | alisertib -0.031 | [9] -0.007 | gefitinib 0.052

NT5DC2 isoform 2 (UniProt Q9H857)
inactive: vemurafenib 0 | [1] 0.069 | barasertib 0.001 | [2] 0.011 | volasertib -0.028 | [3] -0.01 | [4] 0.034 | [5] 0.03 | saracatinib -0.017 | sotrastaurin 0.117 | alvocidib -0.037 | Tubastatin A 0.02 | [6] 0.026 | defactinib 0.007 | [7] 0.032 | encorafenib -0.037 | [8] -0.035 | alisertib 0.013 | [9] -0.001 | gefitinib -0.055

NSMCE1 (UniProt Q8WV22)
inactive: vemurafenib -0.026 | [1] -0.011 | barasertib -0.018 | [2] 0.053 | volasertib -0.032 | [3] -0.04 | [4] 0.02 | [5] -0.017 | saracatinib 0.019 | sotrastaurin 0.007 | alvocidib 0.02 | Tubastatin A 0 | [6] 0.007 | defactinib 0.015 | [7] 0.015 | encorafenib 0.026 | [8] -0.012 | alisertib 0.022 | [9] -0.013 | gefitinib 0.006

Two consecutive entries already listed, quoted:
NRAS (UniProt P01111)
inactive: vemurafenib -0.069 | [1] -0.003 | barasertib 0.09 | [2] 0.017 | volasertib 0.006 | [3] -0.023 | [4] -0.036 | [5] -0.009 | saracatinib 0.037 | sotrastaurin -0.015 | alvocidib 0.023 | Tubastatin A -0.009 | [6] -0.003 | defactinib 0.006 | [7] -0.015 | encorafenib -0.008 | [8] -0.085 | alisertib -0.008 | [9] -0.004 | gefitinib -0.001

NRF1 isoform 4 (UniProt Q16656)
inactive: vemurafenib 0.016 | [1] 0.055 | barasertib 0.052 | [2] -0.007 | volasertib 0 | [3] -0.005 | [4] 0.004 | [5] -0.085 | saracatinib 0.039 | sotrastaurin 0.012 | alvocidib -0.044 | Tubastatin A 0.003 | [6] 0.03 | defactinib -0.017 | [7] -0.003 | encorafenib -0.013 | [8] -0.041 | alisertib 0.037 | [9] -0.017 | gefitinib -0.031

(further entries)

NOL9 (UniProt Q5SY16)
inactive: vemurafenib 0.044 | [1] -0.026 | barasertib -0.011 | [2] -0.001 | volasertib -0.003 | [3] 0 | [4] 0.028 | [5] -0.095 | saracatinib -0.022 | sotrastaurin 0.054 | alvocidib 0.043 | Tubastatin A -0.096 | [6] 0.018 | defactinib 0.011 | [7] -0.016 | encorafenib 0.073 | [8] 0.024 | alisertib -0.054 | [9] 0.007 | gefitinib -0.005

NUBP2 (UniProt Q9Y5Y2)
inactive: vemurafenib -0.017 | [1] 0.009 | barasertib -0.079 | [2] -0.033 | volasertib -0.072 | [3] 0.04 | [4] 0.188 | [5] -0.105 | saracatinib 0.015 | sotrastaurin 0.06 | alvocidib 0.125 | Tubastatin A -0.038 | [6] 0 | defactinib -0.008 | [7] -0.01 | encorafenib 0.032 | [8] 0.131 | alisertib -0.013 | [9] 0.004 | gefitinib -0.017

NME6 (UniProt O75414)
inactive: vemurafenib 0.057 | [1] -0.045 | barasertib -0.001 | [2] 0.044 | volasertib -0.019 | [3] 0.018 | [4] -0.082 | [5] 0.065 | saracatinib -0.057 | sotrastaurin -0.079 | alvocidib 0.087 | Tubastatin A 0.014 | [6] 0.006 | defactinib 0.029 | [7] 0.04 | encorafenib 0.01 | [8] 0 | alisertib 0.008 | [9] 0.042 | gefitinib -0.034

NOP10 (UniProt Q9NPE3)
inactive: vemurafenib -0.041 | [1] 0.023 | barasertib 0.108 | [2] -0.056 | volasertib 0.007 | [3] 0.049 | [4] -0.047 | [5] 0.099 | saracatinib 0.008 | sotrastaurin 0.004 | alvocidib -0.006 | Tubastatin A 0.029 | [6] 0.001 | defactinib 0.005 | [7] -0.149 | encorafenib 0.021 | [8] -0.011 | alisertib -0.004 | [9] 0.028 | gefitinib -0.07

NUDT19 (UniProt A8MXV4)
inactive: vemurafenib -0.003 | [1] 0.001 | barasertib -0.029 | [2] 0.012 | volasertib 0.001 | [3] 0.037 | [4] 0.003 | [5] 0.01 | saracatinib -0.017 | sotrastaurin -0.012 | alvocidib 0.003 | Tubastatin A -0.007 | [6] -0.004 | defactinib 0.018 | [7] -0.008 | encorafenib 0.002 | [8] -0.006 | alisertib -0.012 | [9] -0.075 | gefitinib -0.003
